The target in the test is Coproporphyrin ferrochelatase from Listeria monocytogenes, wild-type (Listeria monocytogenes) (UniProt Q8Y565). As to the kind of experiment: SEC-MALS; HPLC (Shimadzu prominence LC20)-SEC (Superdex 200 10/300)-MALS (Wyatt Heleos Dawn8+); samples checked for purity and monomeric state; both purified. For orientation: In gel filtration, larger molecules generally elute earlier.

Protein sequences, listed by entry. Tags and fused reporters are not part of them.
UniProt Q8Y565: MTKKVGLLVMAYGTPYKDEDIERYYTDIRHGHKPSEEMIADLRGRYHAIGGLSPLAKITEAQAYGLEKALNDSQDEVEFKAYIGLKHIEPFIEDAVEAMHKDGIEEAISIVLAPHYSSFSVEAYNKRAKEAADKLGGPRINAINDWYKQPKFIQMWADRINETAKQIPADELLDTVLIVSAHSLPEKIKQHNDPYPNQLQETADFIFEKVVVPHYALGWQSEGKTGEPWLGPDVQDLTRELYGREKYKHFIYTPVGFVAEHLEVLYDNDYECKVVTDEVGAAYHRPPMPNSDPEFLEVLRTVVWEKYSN

No constants are given. Whether binding was seen depends on the method and setting.

Take “Coproporphyrin ferrochelatase from Listeria monocytogenes, wild-type (from UniProt Q8Y565 1-309) (enzyme)”: the binding entry is recorded as “no binding”.

The record behind these values is publication PMC9794026.
